Measurements reported in PubChem BioAssay AID1259262 (Sanger Institute, 2017).

- Purpose: 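Confirming kinase hits that combine with targeted drugs in colorectal cancer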 (follow-up of hits)
- Cells: LS513 human colorectal cancer cells
- Knock-down reagent: single siRNA against human genes
- Challenge: anchor drug or DMSO vehicle: cetuximab 5 µg/ml, trametinib 10 nM or BYL719 1 µM; exposure length not given
- Read-out: 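Cell viability relative to non-targeting control siRNA, and a synergy score for each anchor drug, averaged over replicates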
- Scale: synergy score with trametinib and synergy score with BYL719 and synergy score with cetuximab: higher = stronger synergistic loss of viability with drug
- Hit rule: 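Active when the synergy score is above 0.10 for trametinib, BYL719 or cetuximab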
- Meaning of the calls: active = synergy with at least one drug; inactive = no synergy with any drug
Shown is one part, drawn at random, of 160 reagents tested. Over the whole deposit, 93 (58%) got an active call. 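Calls refer to single siRNAs; gene-level validation required two or more siRNAs in several lines; synergy score formula unstated.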 Unmarked entries are inactive. Further read-outs or replicates are left out here. Not given: the amount of reagent, the time to read-out.

Gene | PubChem SID | synergy score with trametinib | synergy score with BYL719 | synergy score with cetuximab
KCNH8 | SID134236349 | 0.229 (active) | -0.0956 | 0.0267
KCNH8 | SID134236350 | 0.102 (active) | -0.0695 | -0.0213
KCNH8 | SID134236351 | -0.0478 | -0.15 | -0.153
KCNH8 | SID134236352 | 0.15 (active) | -0.165 | -0.0188
MAPKAPK2 | SID56475927 | 0.0375 | -0.053 | -0.00257
MAPKAPK2 | SID56475928 | 0.136 (active) | -0.134 | -0.0602
MAPKAPK2 | SID56475929 | 0.0811 | 0.0109 | -0.0187
MAPKAPK2 | SID56475930 | 0.174 (active) | -0.0728 | -0.0706
CDKN2D | SID56475683 | 0.243 (active) | -0.231 | -0.149
CDKN2D | SID56475684 | 0.0272 | 0.0459 | -0.148
CDKN2D | SID56475686 | 0.247 (active) | -0.178 | -0.0614
CDKN2D | SID135611272 | 0.269 (active) | 0.0175 | -0.0275
NLK | SID56476715 | 0.119 (active) | -0.0772 | -0.0327
NLK | SID56476716 | 0.0195 | -0.166 | -0.0601
NLK | SID56476717 | -0.00478 | -0.226 | -0.0932
NLK | SID56476718 | 0.0261 | -0.165 | -0.11
PLK1 | SID56475783 | 0.0239 | -0.0787 | -0.0922
PLK1 | SID56475784 | 0.0907 | 0.00697 | 0.0247
PLK1 | SID56475785 | 0.075 | 0.0558 | 0.0607
PLK1 | SID56475786 | 0.0426 | -0.00537 | -0.00284
CSNK2A2 | SID56476699 | 0.136 (active) | -0.201 | -0.11
CSNK2A2 | SID56476700 | 0.101 (active) | -0.236 | 0.0584
CSNK2A2 | SID56476701 | 0.143 (active) | -0.063 | -0.131
CSNK2A2 | SID56476702 | 0.113 (active) | -0.148 | -0.0143
AK2 | SID56477903 | 0.144 (active) | -0.343 | -0.187
AK2 | SID56477904 | 0.435 (active) | -0.226 | -0.0795
AK2 | SID56477905 | 0.0929 | -0.226 | -0.11
AK2 | SID56477906 | 0.337 (active) | -0.00535 | 0.015
PINK1 | SID56476283 | -0.0685 | -0.226 | -0.11
PINK1 | SID56476284 | 0.302 (active) | 0.0988 | 0.0295
PINK1 | SID56476285 | 0.103 (active) | 0.00384 | -0.0193
PINK1 | SID56476286 | 0.132 (active) | 0.0402 | -0.0314
MAP3K8 | SID56475911 | 0.0723 | -0.182 | -0.0678
MAP3K8 | SID56475912 | 0.0859 | -0.103 | 0.000471
MAP3K8 | SID56475913 | 0.00811 | -0.155 | -0.15
MAP3K8 | SID56475914 | 0.215 (active) | -0.00721 | 0.0901
